Laboratory results taken from PubChem BioAssay AID504648 (National Center for Advancing Translational Sciences (NCATS), 2011).
Among all 390,000 compounds or so, about 610 (0.16%) were called active. This list was built around the results that the source calls inconclusive (neither active nor inactive); the mix of calls is not that of the screen. Calls follow the shape of the dose curve; as a rule, active = well fitted inhibition curve with a large enough effect; inconclusive = small, poorly fitted or top-dose-only effect, or effect the other way, or another doubt; inactive = no such curve, though single readings can be large or run the other way. Where the call is inconclusive, the potency comes from a doubtful curve fit.

assay: Nrf2 qHTS screen for inhibitors: counterscreen for cytotoxicity; settings: A549 ARE-Fluc cells, CellTiter-Fluor viability, 18-24 h; series mostly up to 46 µM
Outline: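 Cytotoxicity counterscreen: CellTiter-Fluor fluorescence was measured in A549 ARE_Fluc cells after 18-24 h of compound exposure in a concentration series. The subsequent BugLite luminescent read reports ARE-luciferase activity.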
Potency is read from the fitted curve at half-maximal effect.

Row | SMILES | Potency
1 | CCCOc1cccc(C2c3c(oc4cc(C)c(C)cc4c3=O)C(=O)N2CCCN2CCOCC2)c1 (stereo unspecified) | inconclusive: 32.6 µM [falling, partial curve, poor fit]
2 | Cc1ccc2[nH]c(=O)c(C(c3nnnn3Cc3ccccc3)N3CCc4ccccc43)cc2c1 (stereo unspecified) | inconclusive: 29.1 µM [falling, single point]
3 | Cc1cc(C)n2c(Nc3cccc(C(F)(F)F)c3)c(-c3ccsc3)nc2n1 | inactive
4 | CC1=NN(c2ccccc2)C(=O)/C1=C/N(C)C | inactive
5 | COc1ccccc1C(=O)/C=C/c1ccc(N2CCCCC2)c([N+](=O)[O-])c1 | inconclusive: 29.1 µM [falling, single point]
6 | O=C(CN1CCN(c2ccc(Cl)cc2)CC1)Nc1ccc(F)c(F)c1 | inconclusive: 20.6 µM [falling, single point]
7 | O=S(=O)(O)c1cc(Cl)cc(N=Nc2ccc(O)cc2O)c1O | inconclusive: 18.4 µM [falling, single point]
8 | Cc1cc(C)cc(-n2ccnc2SCC(=O)Nc2ccc(C)c(Cl)c2)c1 | inactive
9 | Cc1ccc2nc(=O)c(NNc3ccccc3)cnc2c1 | inconclusive: 20.6 µM [falling, single point]
10 | CC(C)=CCCC1(C)C=Cc2c(c(C)cc3c2[nH]c2cc(O)ccc23)O1 (stereo unspecified) | inconclusive: 32.6 µM [falling, partial curve, poor fit]
11 | COc1ccc(/C=C(\CC(=O)O)c2nc3ccccc3s2)cc1O | inactive
12 | Cc1ccc(C(=O)CC2(O)C(=O)N(Cc3ccccc3)c3ccc(Br)cc32)cc1 (stereo unspecified) | inconclusive: 29.1 µM [falling, single point]
13 | CCOC(=O)c1c(C)[nH]c(-c2csc(N)n2)c1C | inconclusive: 29.1 µM [falling, partial curve, poor fit]
14 | Nc1cccc(Nc2nc(OC(C(F)(F)F)C(F)(F)F)nc(OC(C(F)(F)F)C(F)(F)F)n2)c1 | inconclusive: 32.6 µM [falling, single point]
15 | Cc1ccc(S(=O)(=O)NC(=O)NCc2ccccn2)cc1 | inconclusive: 11.6 µM [activator, partial curve, poor fit]
16 | O=C(COc1coc(CN2CCN(c3ccccc3F)CC2)cc1=O)NCC1CCCO1 (stereo unspecified) | inactive
17 | Cc1ccc(C(=O)c2cc([N+](=O)[O-])ccc2N2CCN(C)CC2)cc1 | inconclusive: 29.1 µM [falling, single point]
18 | CC(C)(C)c1ccc(OCCC(=O)Nc2cccc(S(=O)(=O)NC3=NCCCCC3)c2)cc1 | inconclusive: 25.9 µM [falling, single point]
19 | O=C(Cn1cc(S(=O)(=O)Cc2ccccc2Cl)c2ccccc21)Nc1cccc(C(F)(F)F)c1 | inconclusive: 20.6 µM [falling, single point]
20 | CC(C)OCC1CC(CC(=O)NC(=S)Nc2cccc([N+](=O)[O-])c2)C(=O)O1 (stereo unspecified) | inconclusive: 23.1 µM [activator, partial curve, poor fit]
21 | Cc1ccc(O)c([C@H](CCN(C(C)C)C(C)C)c2ccccc2)c1 | inconclusive: 14.6 µM [falling, partial curve, poor fit]
22 | CCc1ccc(-c2nc(CN3CCC(C(=O)N4CCN(c5ccccc5)CC4)CC3)c(C)o2)cc1 | inactive

Looked up one by one from above, two records:
Row | SMILES | Potency
8 | Cc1cc(C)cc(-n2ccnc2SCC(=O)Nc2ccc(C)c(Cl)c2)c1 | inactive
13 | CCOC(=O)c1c(C)[nH]c(-c2csc(N)n2)c1C | inconclusive: 29.1 µM [falling, partial curve, poor fit]

A few values from the list:
Cc1ccc(C(=O)c2cc([N+](=O)[O-])ccc2N2CCN(C)CC2)cc1 – Potency: inconclusive: 29.1 µM [falling, single point]
O=C(Cn1cc(S(=O)(=O)Cc2ccccc2Cl)c2ccccc21)Nc1cccc(C(F)(F)F)c1 – Potency: inconclusive: 20.6 µM [falling, single point]

(list continues)

Row | SMILES | Potency
23 | CCCCOc1cccc(C(=O)Nc2ccc(NC(=O)c3cccs3)cc2)c1 | inconclusive: 29.1 µM [falling, single point]
24 | Fc1ccc(NC(=S)Nc2ccc(F)c(Cl)c2)cc1Cl | inactive
25 | CCOc1cc(-c2nnc(SCC(=O)NCCCOC)nc2-c2ccc(OC)c(OCC)c2)ccc1OC | inconclusive: 20.6 µM [falling, single point]
26 | Cn1cc(S(=O)(=O)N2CCCCC2)cc1C(=O)NCc1ccc(Cl)cc1 | inactive
27 | CCOc1ccc(-c2nnn(CC(=O)Nc3cccc(OC)c3)n2)cc1OCC | inactive
28 | O=C1c2ccc3c4c(ccc(c24)C(=O)N1c1ccc2ccccc2c1)CC3 | inconclusive: 1.64 µM [falling, partial curve, poor fit]
29 | CCCN(C(=O)c1cn(CC(C)C)c(=O)c2cc(OC)c(OC)cc12)c1cccc(C)c1 | inconclusive: 29.1 µM [falling, single point]
30 | CCOC(=O)c1c(-c2ccccc2)oc2cc(Br)c(O)c(C=O)c12 | inconclusive: 20.6 µM [falling, partial curve]
31 | COc1ccc(-n2c(=S)[nH]c3ccccc32)cc1 | inactive
32 | Cc1nnc(NC(=O)CSc2nnc3ncccn23)s1 | inconclusive: 25.9 µM [activator, single point]
33 | C=CC[C@@H](Cc1ccc(F)cc1)C(=O)OC[C@H]1CCCN1C(=O)[C@@H](CC=C)CC(=O)N[C@H](CO)Cc1ccccc1 | inconclusive: 18.4 µM [falling, single point]
34 | O=C(NN1C(=O)/C(=C/c2ccc(O)c([N+](=O)[O-])c2)SC1=S)c1ccccc1Cl | active: 3.66 µM
35 | c1ccc(Oc2cc(-n3cncn3)ncn2)cc1 | inactive
36 | COc1cc2c(c(OC)c1OC)-c1ccc(SC)c(=O)cc1C(NC(=O)C(F)(F)F)CC2 (stereo unspecified) | inconclusive: 8.2 µM [falling, partial curve]
37 | CCCC[n+]1ccn(C2=C([O-])c3ccccc3C(=O)/C2=N\S(=O)(=O)c2ccc(Br)cc2)c1 | inconclusive: 29.1 µM [falling, single point]
38 | CCc1ccc(CCC(=O)Nc2ncc(Cc3ccccc3Cl)s2)o1 | inactive
39 | O=C(NCc1ccncc1)c1nc(-c2ccc(C(F)(F)F)cc2)no1 | inconclusive: 32.6 µM [falling, partial curve, poor fit]
40 | C#CCOCCOCCOCCNc1nc(N2CCOCC2)nc(N2CCN(C(=O)[C@H]([C@@H](C)CC)n3cc([C@@H](N)Cc4ccc(O)cc4)nn3)CC2)n1 | inconclusive: 18.4 µM [falling, partial curve, poor fit]
41 | CCOc1cc(C2c3c(oc4cc(C)c(Cl)cc4c3=O)C(=O)N2Cc2ccco2)ccc1O (stereo unspecified) | inactive
42 | COc1ccc(-c2cc(-c3c(O)c(OC)c4occc4c3OC)[nH]n2)cc1OC | inconclusive: 23.1 µM [falling, single point]
43 | CCn1c2ccccc2c2cc(NC(=O)c3cc(C)on3)ccc21 | inconclusive: 32.6 µM [falling, partial curve, poor fit]
44 | O=C(Nc1ccc(Cl)c(Cl)c1)c1ccc(Cn2cc(Cl)cn2)cc1 | inconclusive: 23.1 µM [falling, single point]

Row | SMILES | Potency
45 | CSc1ccc(CCNC(=O)Cn2ncn3c(cc4ccccc43)c2=O)cc1 | inactive
46 | CC(C)C(NC(=O)c1c(F)cccc1F)C(=O)OCN1C(=O)c2ccccc2C1=O (stereo unspecified) | inactive
47 | COc1ccc(Br)cc1CNC(=O)c1cnc2sc(N3CCCCCC3)nn2c1=O | inactive
48 | COc1ccc(S(=O)(=O)Nc2cc3c(C(C)=O)c(C)oc3c3ccccc23)cc1 | inconclusive: 20.6 µM [falling, partial curve]
49 | CC(C)=CCc1c(O)c(CC=C(C)C)c2occ(-c3ccc(O)cc3)c(=O)c2c1O | inconclusive: 32.6 µM [falling, partial curve, poor fit]
50 | Nc1nc(CN2CCc3ccccc3C2)nc(Nc2ccccc2)n1 | inconclusive: 32.6 µM [activator, partial curve, poor fit]
51 | Cn1nc(-c2ccc(OCC(=O)Nc3ccc(Cl)cc3)cc2)c2ccccc2c1=O | inconclusive: 29.1 µM [falling, single point]
52 | Nc1ccc(C(=O)n2c3ccccc3c3ccccc32)cc1 | inconclusive: 6.51 µM [falling, partial curve, poor fit]
53 | Cc1nc(SCC(=O)NCCc2ccccc2)nc(C)c1C | inactive
54 | CCc1ccc(S(=O)(=O)/N=C2/C=C(Sc3ncn[nH]3)C(=O)c3ccccc32)cc1 | inconclusive: 29.1 µM [falling, single point]
55 | CS(=O)(=O)N(CC(=O)Nc1ccc(CC#N)cc1)c1ccc(C23CC4CC(CC(C4)C2)C3)cc1 | inconclusive: 14.6 µM [falling, partial curve, poor fit]
56 | Cc1ccc(NC(=O)C(=O)NCC2CCCO2)cc1 (stereo unspecified) | inactive
57 | COc1cccc(CNC(=O)c2cccc(S(=O)(=O)N3CCN(c4ccc(F)cc4)CC3)c2)c1 | inactive
58 | COc1ccc(NC(=O)CSc2nc3ccccc3c(=O)n2CCCN2CCC(C)CC2)c(OC)c1 | inconclusive: 23.1 µM [falling, partial curve]
59 | C(=C\c1nccc2c1[nH]c1ccccc12)/c1ccccc1 | inactive
60 | COc1ccc(C2=NC3(CCCCCC3)N(CC(=O)Nc3cccc(Cl)c3)C2=O)cc1 | inconclusive: 18.4 µM [falling, single point]
61 | COc1ccc(-c2c(C#N)c(SCC(=O)Nc3ccc(C)cc3)nc(C)c2C(=O)Nc2ccccc2)cc1 | inactive
62 | COc1ccc(C)cc1NS(=O)(=O)c1ccc(-c2cnc(C3CC3)o2)cc1 | inconclusive: 0.231 µM [falling, full curve, poor fit]
63 | Cc1ccc(C)c(S(=O)(=O)Nc2ccc3c(c2)CCCN3C(=O)c2cccs2)c1 | inactive
64 | Cc1ccc(Nc2cc(C)nc(N3CCOCC3)n2)c(C)c1 | inconclusive: 20.6 µM [activator, partial curve, poor fit]
65 | OC(CNc1ccnc2cc(Cl)ccc12)CNC1CCCCC1 (stereo unspecified) | inconclusive: 13 µM [falling, partial curve]
66 | CCc1cc(=O)oc2cc3occ(-c4ccc(OC)c(F)c4)c3cc12 | inconclusive: 20.6 µM [falling, partial curve, poor fit]
